Here are results for one substance from article doi:10.1101/2023.08.26.554759.

Amino acid sequences for entries named in this document (tags omitted).
UniProt Q14974: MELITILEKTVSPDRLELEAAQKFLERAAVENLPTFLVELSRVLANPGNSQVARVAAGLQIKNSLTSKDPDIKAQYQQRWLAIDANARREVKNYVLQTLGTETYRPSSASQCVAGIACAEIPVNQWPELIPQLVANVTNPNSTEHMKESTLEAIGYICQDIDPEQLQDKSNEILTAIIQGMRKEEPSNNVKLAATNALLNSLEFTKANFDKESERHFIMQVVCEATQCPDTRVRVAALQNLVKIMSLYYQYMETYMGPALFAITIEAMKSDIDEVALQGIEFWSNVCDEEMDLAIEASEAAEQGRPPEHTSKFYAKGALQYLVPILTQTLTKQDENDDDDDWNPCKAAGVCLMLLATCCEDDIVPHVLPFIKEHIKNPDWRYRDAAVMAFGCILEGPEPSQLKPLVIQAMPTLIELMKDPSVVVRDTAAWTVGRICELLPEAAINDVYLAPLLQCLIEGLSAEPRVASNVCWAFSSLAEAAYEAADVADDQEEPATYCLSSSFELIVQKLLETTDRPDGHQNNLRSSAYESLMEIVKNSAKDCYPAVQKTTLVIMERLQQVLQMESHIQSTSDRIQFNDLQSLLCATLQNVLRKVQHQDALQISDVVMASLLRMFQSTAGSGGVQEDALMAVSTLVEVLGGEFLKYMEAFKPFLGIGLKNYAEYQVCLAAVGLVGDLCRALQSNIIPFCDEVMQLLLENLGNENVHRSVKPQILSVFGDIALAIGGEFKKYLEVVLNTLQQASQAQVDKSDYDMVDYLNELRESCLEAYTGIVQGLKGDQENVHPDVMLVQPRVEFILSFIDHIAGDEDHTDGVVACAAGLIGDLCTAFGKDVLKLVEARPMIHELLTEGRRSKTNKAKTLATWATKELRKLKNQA
UniProt P35222: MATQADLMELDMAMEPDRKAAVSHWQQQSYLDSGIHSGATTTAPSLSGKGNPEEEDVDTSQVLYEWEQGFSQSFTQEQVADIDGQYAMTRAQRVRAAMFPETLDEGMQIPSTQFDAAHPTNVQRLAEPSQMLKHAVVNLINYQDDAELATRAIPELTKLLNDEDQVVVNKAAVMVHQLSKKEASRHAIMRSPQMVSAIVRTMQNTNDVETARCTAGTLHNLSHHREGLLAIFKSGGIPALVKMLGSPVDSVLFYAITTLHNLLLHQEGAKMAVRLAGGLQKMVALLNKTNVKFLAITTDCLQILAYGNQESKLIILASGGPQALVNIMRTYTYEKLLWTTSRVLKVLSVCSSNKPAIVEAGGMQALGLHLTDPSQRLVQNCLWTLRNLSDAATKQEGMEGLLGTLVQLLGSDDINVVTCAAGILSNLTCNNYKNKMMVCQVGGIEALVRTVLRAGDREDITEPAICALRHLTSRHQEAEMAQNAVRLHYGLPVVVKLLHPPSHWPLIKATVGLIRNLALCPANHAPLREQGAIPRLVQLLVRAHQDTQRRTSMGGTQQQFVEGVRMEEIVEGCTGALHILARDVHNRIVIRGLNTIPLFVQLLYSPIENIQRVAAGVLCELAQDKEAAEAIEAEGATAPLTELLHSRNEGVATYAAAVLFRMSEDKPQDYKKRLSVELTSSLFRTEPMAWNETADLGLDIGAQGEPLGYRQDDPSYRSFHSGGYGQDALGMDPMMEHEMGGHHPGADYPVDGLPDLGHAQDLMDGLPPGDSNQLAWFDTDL

The target of the test is importin β (KPNB1) (human (endogenous in HeLa)) (UniProt Q14974). The experiment in a line: co-IP.

No constants are given. Whether binding was seen depends on the method and setting. Binding seen in cells or lysates may run through a third protein. Some entries that bind do so weakly or less than the wild type.

“β-catenin (CTNNB1) (from UniProt P35222 1-781)”: the binding entry is listed as “binds”.
